# Results from PubChem BioAssay AID2685 (National Center for Advancing Translational Sciences (NCATS), 2010).
# Some of the results follow. The main result of the screen is listed elsewhere. These columns were measured beside it and carry no call. Most of these compounds were active or inconclusive in the main read-out, so they are no random draw. Potencies come from curve fits of mixed quality, noted in brackets.
# Assay: qHTS Assay for Lipid Storage Modulators in Drosophila S3 Cells;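 as to cell number change: cells counted by Cell Tracker Red CMTPX staining in the red channel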
# Details: BODIPY lipid droplet fluorescence, 18-24 h; for cell number change: measured here: cell count max response, cells fed with added oleic acid
# Method in brief: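 Drosophila S3 cells got compounds at several concentrations plus oleic acid (400 uM solution). Laser-scanning cytometry with 488 nm excitation read lipid droplets at 500-530 nm and cells at 575-640 nm. Percent activity was relative to 20 uM Triacsin C.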
# [1] = measured here: lipid fluorescence (Fed channel) AC50, cells fed with added oleic acid
# [2] = measured here: cell number channel AC50, cells fed with added oleic acid
SMILES,cell number change [%],AC50 [1],AC50 [2]
CCOC(=O)c1csc(NC(=O)CSc2nnnn2-c2ccc(OCC)cc2)n1,11.1,"5.8 µM [rising, single point]",
CCN(CC)S(=O)(=O)c1ccc(/C(O)=C2/C(=O)C(=O)N(CCOC)C2c2ccccc2)cc1 (stereo not drawn),-21.8,"0.651 µM [falling, full curve, poor fit]",
CC(C)NC(=O)NC(=O)CN1c2cccc3cccc(c23)S1(=O)=O,-0.704,,
CC1N(C)c2cccc3cccc(c23)N1C,-7.01,"1.64 µM [rising, partial curve]",
CCC(C)(C(=O)NC1CCCCC1)N(Cc1ccco1)C(=O)Cc1cccs1 (stereo not drawn),-24.1,,
CN(C)CCCn1c(N)c(C#N)c2nc(C#N)c(C#N)nc21,,"6.51 µM [falling, single point]","0.92 µM [falling, full curve, poor fit]"
COc1cc(-c2cc(C(=O)NN3CCN(C)CC3)c3ccccc3n2)cc(OC)c1OC,8.44,"0.116 µM [rising, partial curve]",
Cc1ccc(/C=C/C(=O)NC(=S)Nc2ccc(S(=O)(=O)Nc3cc(C)on3)cc2)cc1,10,"16.4 µM [rising, partial curve]",
CC(C)CCNC(=O)C1CCC(=O)N1C(C)C (stereo not drawn),-8.77,,
Cc1ccccc1NC(=S)NNC(=O)c1ccncc1,172,,"29.1 µM [rising, single point]"
CCOC(=O)c1nnc(-c2ccccc2)nc1Sc1ccccc1Cl,-52.6,"5.17 µM [falling, full curve, poor fit]","25.9 µM [falling, partial curve]"
Cc1ccc(NC(=O)CSc2nnc(NC(=O)C3CC3)s2)cc1,1.51,,
Cc1ccc(/C=N/N=C2\SCC(=O)N2CC2CC2)cc1,12.9,"2.31 µM [rising, partial curve, poor fit]",
Cn1nc(C(=O)NCc2cccc(F)c2)cc1C(=O)NCc1cccc(F)c1,-54.4,"18.4 µM [falling, single point]","29.1 µM [falling, single point]"
COc1ccc2occ(C(=O)c3ccc(N=C(C)N(C)C)cc3)c2c1,0.0638,"6.51 µM [falling, single point]",
CC(=O)c1cccc(NC(=O)CSc2nc(=O)n(CCN3CCOCC3)c3c2CCCC3)c1,-4.95,"29.1 µM [falling, single point]",
O=C(O)c1ccc2c(=O)n3c(nc2c1)/C(=C/c1ccc(F)cc1)CC3,13,"2.06 µM [rising, partial curve]",
O=C(N/N=C/c1ccc(F)cc1)c1cc(-c2ccco2)nc2ccccc12,-21.1,"3.26 µM [falling, single point]",
COc1ccc(Cl)cc1NC(=O)CSc1nc(NS(=O)(=O)c2ccc(C)cc2)cc(=O)[nH]1,,"0.13 µM [falling, single point]",
O=C(NCc1ccccn1)c1cn(CCc2ccccc2)nn1,-27.8,"29.1 µM [falling, single point]",
O=C(Nc1ccncc1)C1CCN(S(=O)(=O)c2cccs2)CC1,54.8,,"32.6 µM [rising, partial curve, poor fit]"

SMILES,cell number change [%],AC50 [1],AC50 [2]
Cc1cc2c(cc1S(=O)(=O)N1CCCC1)n(C)c(=O)c(=O)n2C,7.78,"0.92 µM [falling, full curve]",
O=C(Nc1cccc(C(F)(F)F)c1)c1cc(-c2ccc(F)cc2)on1,-19.9,"0.82 µM [falling, single point]",
O=C(Cn1c2[n+](c3ccc(C(F)(F)F)cc31)CCCCC2)Nc1c(F)cccc1F,-19.4,,
CCCCOc1ccc(Br)cc1CSC(=N)N,-16.3,"5.17 µM [falling, partial curve]","0.164 µM [falling, full curve, poor fit]"
COC(=O)Nc1cccn(Cc2c(Cl)cccc2Cl)c1=O,-9.98,"0.291 µM [falling, full curve, poor fit]",
COc1ccc(N(Cc2ccccc2)S(=O)(=O)c2cc(C(=O)O)ccc2Cl)cc1,35.2,,"6.51 µM [rising, full curve, poor fit]"
CC1CCCCN1C(=O)C1CCN(c2nc(-c3ccccc3)nc3c2CCC3)CC1 (stereo not drawn),-36.7,"10.3 µM [falling, partial curve]","14.6 µM [falling, partial curve, poor fit]"
Cc1c(CCOC(=O)C23CC4CC(CC(C4)C2)C3)sc[n+]1CC#N,-16.8,"7.31 µM [falling, partial curve, poor fit]",
CCNc1nc(NC(C)C)nc(N(C#N)CCOc2ccc(Cl)cc2Cl)n1,-4.8,"1.3 µM [rising, partial curve]",
COc1ccc(OC)c(NC(=O)/C=C/c2ccccc2[N+](=O)[O-])c1,6.43,"29.1 µM [falling, single point]",
CC(C(=O)c1ccccc1)[n+]1cccc(C(N)=O)c1 (stereo not drawn),4.63,"0.184 µM [falling, full curve, poor fit]",
CCOc1ccc(OCc2ccc(C(=O)O)o2)cc1,19.4,"3.66 µM [falling, full curve]",
CC1(C)CC(=O)C(C=NC(CCC(N)=O)C(=O)O)=C(O)C1 (stereo not drawn),-32.8,"2.59 µM [falling, full curve]","1.64 µM [falling, full curve]"
CC(C)c1ncc(S(=O)(=O)c2ccc(C(F)(F)F)cn2)c(N)n1,-37.3,"32.6 µM [falling, single point]","29.1 µM [falling, single point]"
Cc1ccc(S(=O)(=O)NCCC(=O)Nc2cc(F)ccc2C)cc1C,6.67,"29.1 µM [rising, single point]",
O=C(Cc1ccc(S(=O)(=O)N2CCOCC2)s1)NC1CCCCC1,2.63,"20.6 µM [rising, partial curve, poor fit]",
CCOc1ccc(Cl)cc1S(=O)(=O)n1cnc2cc(C)c(C)cc21,72.6,,"23.1 µM [rising, single point]"
CCCC[C@H](CC(=O)c1ccccc1)[C@@H](OC(C)=O)C(=O)Oc1c(C(C)C)cccc1C(C)C,5.24,"8.2 µM [falling, single point]",
OCc1c[nH]c2ccccc12,15.6,"4.61 µM [rising, full curve]",
O=C(CCCc1ccccc1)Nc1cccnc1,74.3,,"20.6 µM [rising, partial curve]"
O=[N+]([O-])c1ccc(N/N=C\c2cccn2-c2ccccc2)nc1,,"20.6 µM [falling, single point]",

# Structures listed so far with a CF3 group (3):
SMILES,cell number change [%],AC50 [1],AC50 [2]
O=C(Nc1cccc(C(F)(F)F)c1)c1cc(-c2ccc(F)cc2)on1,-19.9,"0.82 µM [falling, single point]",
O=C(Cn1c2[n+](c3ccc(C(F)(F)F)cc31)CCCCC2)Nc1c(F)cccc1F,-19.4,,
CC(C)c1ncc(S(=O)(=O)c2ccc(C(F)(F)F)cn2)c(N)n1,-37.3,"32.6 µM [falling, single point]","29.1 µM [falling, single point]"

# (next part)

SMILES,cell number change [%],AC50 [1],AC50 [2]
CCOc1ccc(-n2nnc3c(=O)n(CC(=O)NCc4ccco4)cnc32)cc1,52.9,"20.6 µM [rising, single point]","11.6 µM [rising, partial curve, poor fit]"
O=C1CN(C(=O)COc2ccc(Cl)cc2Cl)c2ccccc2N1,29.5,"5.17 µM [rising, single point]",
CCOc1ccc(NC(=S)c2ccc3ccccc3n2)cc1,-14,"18.4 µM [falling, single point]",
O=C(COC(=O)c1ccc(O)cc1O)NC(=O)NCc1ccccc1,-23.6,"0.58 µM [rising, single point]",
CCOC(=O)c1c(C)[nH]c(C(=O)OCC(=O)Nc2ccc(Cl)cn2)c1C,13.8,,
Cc1cc(C)c(NC(=O)CNC(=O)c2ccccc2OCc2c(C)noc2C)c(C)c1,23,"5.8 µM [rising, partial curve]",
CC(NC(=O)c1ccc2ccccc2n1)c1ccccc1 (stereo not drawn),-15.4,,
COc1cccc(C2C(=O)c3ccccc3C2=O)c1,-46.9,"29.1 µM [falling, single point]","29.1 µM [falling, single point]"
Cc1nc(Cl)cc(N/N=C/c2ccccc2)n1,11,"29.1 µM [rising, single point]",
CCCNC(=O)CN(c1ccc(F)cc1)S(=O)(=O)c1ccc2c(c1)OCCO2,12.9,"29.1 µM [falling, single point]",
CC(C)C[C@H](NC(=O)N1CCCCCC1)C(=O)O,-17.8,,"6.51 µM [rising, single point]"
COc1ccc(NC(C)C(=O)N/N=C/c2c(O)ccc3ccccc23)cc1 (stereo not drawn),4.96,"20.6 µM [falling, single point]",
CCC(=O)N(C)CCc1cc2c(c(OC)c1/C=N/NC(=O)c1ccc(Br)cc1)OCO2,-0.803,,
CCOc1ccc(-c2cn(CCC#N)cn2)cc1,78.4,"0.146 µM [falling, full curve, poor fit]","8.2 µM [rising, partial curve]"
CC(=O)Nc1ccc(NC(=O)COC(=O)c2ccc(C)s2)cc1,7.71,"0.00517 µM [falling, full curve, poor fit]",
CCCCNCCOCCOc1ccc(C)cc1Br,-9.57,"5.8 µM [rising, full curve]",
CNc1ccc([N+](=O)[O-])cc1,1.24,"0.146 µM [falling, full curve]",
CCCCCCN1CC(=O)N2[C@@H](Cc3c([nH]c4ccccc34)C2(C)C)C1=O,-39.5,"29.1 µM [falling, single point]","25.9 µM [falling, single point]"
CCCCOP(=O)(c1ccc(N(C)C)cc1)C(O)c1ccncc1 (stereo not drawn),46.2,"29.1 µM [rising, single point]","14.6 µM [rising, partial curve, poor fit]"
